Reference: the supplement of paper PMC10849652
The list shows a part of the results.

Chains of the proteins cited; added tags and fusions are not shown. Lines headed by an entry give the natural chain unless they say otherwise; changes in a name come on top.
UniProt Q6PH81: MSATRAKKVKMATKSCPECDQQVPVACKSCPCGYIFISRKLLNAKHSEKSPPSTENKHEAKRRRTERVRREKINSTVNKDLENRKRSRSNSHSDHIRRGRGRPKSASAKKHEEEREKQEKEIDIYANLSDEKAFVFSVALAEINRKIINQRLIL
UniProt Q8IYL3: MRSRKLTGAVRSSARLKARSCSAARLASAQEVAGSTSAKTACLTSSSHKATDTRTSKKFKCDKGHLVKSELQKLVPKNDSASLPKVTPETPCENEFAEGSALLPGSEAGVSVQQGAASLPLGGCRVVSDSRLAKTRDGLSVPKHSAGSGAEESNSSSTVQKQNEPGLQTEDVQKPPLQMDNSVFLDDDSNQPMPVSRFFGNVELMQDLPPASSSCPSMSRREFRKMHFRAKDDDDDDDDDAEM
UniProt P0DMB2: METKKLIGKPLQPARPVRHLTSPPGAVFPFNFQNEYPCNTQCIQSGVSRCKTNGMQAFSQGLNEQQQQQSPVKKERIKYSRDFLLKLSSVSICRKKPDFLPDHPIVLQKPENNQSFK
UniProt Q01518, whole entry, looked up: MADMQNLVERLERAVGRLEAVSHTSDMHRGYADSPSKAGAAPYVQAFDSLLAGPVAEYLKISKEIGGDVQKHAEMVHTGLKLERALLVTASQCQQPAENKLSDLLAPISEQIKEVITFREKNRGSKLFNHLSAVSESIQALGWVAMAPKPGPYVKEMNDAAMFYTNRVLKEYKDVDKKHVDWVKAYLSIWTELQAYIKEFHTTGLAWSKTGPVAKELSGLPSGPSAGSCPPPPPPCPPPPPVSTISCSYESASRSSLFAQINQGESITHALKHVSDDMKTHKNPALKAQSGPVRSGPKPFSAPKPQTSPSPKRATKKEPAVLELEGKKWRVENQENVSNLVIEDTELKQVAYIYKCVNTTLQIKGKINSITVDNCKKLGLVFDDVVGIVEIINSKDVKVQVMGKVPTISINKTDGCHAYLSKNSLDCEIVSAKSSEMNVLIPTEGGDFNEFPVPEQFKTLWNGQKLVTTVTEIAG
UniProt Q9NQ89: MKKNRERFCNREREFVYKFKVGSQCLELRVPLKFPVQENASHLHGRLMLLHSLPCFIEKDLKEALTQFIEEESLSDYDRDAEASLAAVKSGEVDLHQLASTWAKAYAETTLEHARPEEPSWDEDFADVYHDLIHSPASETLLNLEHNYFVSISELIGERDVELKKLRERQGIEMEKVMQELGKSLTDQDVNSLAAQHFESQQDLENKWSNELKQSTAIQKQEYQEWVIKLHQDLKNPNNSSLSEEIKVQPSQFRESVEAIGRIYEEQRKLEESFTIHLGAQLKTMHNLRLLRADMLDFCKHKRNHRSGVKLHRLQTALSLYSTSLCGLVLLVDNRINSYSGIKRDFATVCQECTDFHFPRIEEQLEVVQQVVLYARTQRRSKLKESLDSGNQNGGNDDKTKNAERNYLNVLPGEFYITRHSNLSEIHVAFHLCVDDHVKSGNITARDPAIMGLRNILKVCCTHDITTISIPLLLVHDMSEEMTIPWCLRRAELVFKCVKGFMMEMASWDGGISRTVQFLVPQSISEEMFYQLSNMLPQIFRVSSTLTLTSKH
UniProt Q6P5X5: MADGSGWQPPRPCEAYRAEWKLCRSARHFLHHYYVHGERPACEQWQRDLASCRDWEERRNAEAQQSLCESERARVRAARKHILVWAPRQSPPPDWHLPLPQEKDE
UniProt Q3KRA6: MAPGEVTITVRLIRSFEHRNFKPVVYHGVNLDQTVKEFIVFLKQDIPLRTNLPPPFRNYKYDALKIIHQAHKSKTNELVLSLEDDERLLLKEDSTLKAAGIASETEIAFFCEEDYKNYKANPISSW
UniProt Q9BTV7: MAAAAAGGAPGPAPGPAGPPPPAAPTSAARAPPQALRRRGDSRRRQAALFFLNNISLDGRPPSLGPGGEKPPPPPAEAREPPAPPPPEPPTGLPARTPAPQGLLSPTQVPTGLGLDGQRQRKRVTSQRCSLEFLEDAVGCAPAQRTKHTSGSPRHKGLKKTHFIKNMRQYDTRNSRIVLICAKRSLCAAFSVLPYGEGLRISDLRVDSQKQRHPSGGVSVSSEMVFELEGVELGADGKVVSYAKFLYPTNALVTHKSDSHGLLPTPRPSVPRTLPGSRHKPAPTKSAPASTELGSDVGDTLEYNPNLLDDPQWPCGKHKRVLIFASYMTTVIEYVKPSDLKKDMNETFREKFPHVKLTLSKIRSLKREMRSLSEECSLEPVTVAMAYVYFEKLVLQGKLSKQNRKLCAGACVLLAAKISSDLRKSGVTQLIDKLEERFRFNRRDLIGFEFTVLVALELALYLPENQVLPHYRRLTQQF
UniProt Q7Z7L8: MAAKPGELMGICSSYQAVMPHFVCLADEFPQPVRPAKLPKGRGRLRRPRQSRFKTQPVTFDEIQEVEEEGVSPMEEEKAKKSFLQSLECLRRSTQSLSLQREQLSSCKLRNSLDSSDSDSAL
UniProt Q9H6X5: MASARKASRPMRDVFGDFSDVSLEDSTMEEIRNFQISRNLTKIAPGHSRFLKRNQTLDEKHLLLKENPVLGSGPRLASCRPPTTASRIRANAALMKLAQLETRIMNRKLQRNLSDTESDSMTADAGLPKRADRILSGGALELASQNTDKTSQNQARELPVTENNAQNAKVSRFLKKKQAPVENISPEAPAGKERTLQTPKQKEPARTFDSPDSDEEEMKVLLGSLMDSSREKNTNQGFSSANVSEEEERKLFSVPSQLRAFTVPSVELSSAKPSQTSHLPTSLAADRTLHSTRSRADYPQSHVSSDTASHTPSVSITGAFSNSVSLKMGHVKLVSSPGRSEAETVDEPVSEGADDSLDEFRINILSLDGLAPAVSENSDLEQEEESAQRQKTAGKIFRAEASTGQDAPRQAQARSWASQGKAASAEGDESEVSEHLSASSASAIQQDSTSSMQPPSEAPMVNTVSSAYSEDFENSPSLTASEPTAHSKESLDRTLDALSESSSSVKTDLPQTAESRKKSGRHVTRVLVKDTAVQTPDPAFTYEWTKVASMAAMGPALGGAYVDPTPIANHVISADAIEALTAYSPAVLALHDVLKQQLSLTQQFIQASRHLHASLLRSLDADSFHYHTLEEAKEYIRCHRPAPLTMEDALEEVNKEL
UniProt Q9NX04: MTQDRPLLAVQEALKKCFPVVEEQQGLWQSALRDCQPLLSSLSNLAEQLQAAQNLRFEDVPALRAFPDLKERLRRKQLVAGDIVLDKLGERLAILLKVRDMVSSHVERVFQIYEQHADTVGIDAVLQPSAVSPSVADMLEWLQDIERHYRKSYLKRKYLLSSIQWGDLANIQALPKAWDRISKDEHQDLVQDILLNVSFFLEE
UniProt Q96L46: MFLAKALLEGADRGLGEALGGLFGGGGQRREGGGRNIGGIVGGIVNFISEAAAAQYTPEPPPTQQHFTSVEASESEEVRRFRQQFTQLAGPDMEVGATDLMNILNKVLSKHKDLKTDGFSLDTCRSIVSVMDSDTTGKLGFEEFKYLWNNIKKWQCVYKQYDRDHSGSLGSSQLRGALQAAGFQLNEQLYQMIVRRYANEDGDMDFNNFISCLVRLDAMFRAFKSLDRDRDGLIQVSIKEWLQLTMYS
UniProt A1L170: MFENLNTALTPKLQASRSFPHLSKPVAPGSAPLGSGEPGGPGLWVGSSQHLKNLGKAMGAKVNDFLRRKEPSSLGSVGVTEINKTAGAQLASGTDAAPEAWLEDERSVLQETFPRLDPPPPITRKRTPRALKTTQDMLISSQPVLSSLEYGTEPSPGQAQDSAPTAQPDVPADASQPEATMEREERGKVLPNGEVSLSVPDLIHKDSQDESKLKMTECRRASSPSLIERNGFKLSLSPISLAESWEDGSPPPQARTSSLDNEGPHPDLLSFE
UniProt Q9NSK7: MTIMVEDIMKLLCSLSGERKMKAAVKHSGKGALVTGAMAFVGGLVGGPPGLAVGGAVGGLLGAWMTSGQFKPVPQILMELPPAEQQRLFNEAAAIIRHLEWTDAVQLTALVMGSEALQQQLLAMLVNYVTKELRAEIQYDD
UniProt Q504U0: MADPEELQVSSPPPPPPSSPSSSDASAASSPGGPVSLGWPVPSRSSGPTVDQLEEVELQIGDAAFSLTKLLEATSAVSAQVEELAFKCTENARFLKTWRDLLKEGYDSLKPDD
UniProt Q96F05: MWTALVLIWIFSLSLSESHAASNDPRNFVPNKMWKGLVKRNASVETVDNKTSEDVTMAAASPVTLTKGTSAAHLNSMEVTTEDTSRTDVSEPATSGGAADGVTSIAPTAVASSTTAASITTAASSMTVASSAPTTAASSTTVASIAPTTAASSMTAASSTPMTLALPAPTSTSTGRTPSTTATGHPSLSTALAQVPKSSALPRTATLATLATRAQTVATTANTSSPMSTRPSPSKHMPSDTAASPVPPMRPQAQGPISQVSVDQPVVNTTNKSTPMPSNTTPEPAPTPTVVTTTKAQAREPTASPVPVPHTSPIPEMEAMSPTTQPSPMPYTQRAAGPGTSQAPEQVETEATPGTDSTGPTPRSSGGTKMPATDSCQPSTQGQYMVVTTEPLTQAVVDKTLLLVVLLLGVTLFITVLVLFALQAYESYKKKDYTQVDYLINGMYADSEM
UniProt Q9BVC5: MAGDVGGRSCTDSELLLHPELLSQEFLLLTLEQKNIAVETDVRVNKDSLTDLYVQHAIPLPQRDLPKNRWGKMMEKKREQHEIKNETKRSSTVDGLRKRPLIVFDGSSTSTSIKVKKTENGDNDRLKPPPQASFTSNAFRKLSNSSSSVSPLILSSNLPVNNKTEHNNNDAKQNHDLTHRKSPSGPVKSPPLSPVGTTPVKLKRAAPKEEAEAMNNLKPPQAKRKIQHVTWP
UniProt Q9GZU0: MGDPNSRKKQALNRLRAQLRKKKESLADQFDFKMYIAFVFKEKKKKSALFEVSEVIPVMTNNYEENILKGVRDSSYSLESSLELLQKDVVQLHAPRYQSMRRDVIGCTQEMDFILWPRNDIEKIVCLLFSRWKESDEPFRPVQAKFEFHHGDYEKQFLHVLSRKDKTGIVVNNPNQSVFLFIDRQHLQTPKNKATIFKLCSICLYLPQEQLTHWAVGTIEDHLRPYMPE
UniProt Q9P1Y5: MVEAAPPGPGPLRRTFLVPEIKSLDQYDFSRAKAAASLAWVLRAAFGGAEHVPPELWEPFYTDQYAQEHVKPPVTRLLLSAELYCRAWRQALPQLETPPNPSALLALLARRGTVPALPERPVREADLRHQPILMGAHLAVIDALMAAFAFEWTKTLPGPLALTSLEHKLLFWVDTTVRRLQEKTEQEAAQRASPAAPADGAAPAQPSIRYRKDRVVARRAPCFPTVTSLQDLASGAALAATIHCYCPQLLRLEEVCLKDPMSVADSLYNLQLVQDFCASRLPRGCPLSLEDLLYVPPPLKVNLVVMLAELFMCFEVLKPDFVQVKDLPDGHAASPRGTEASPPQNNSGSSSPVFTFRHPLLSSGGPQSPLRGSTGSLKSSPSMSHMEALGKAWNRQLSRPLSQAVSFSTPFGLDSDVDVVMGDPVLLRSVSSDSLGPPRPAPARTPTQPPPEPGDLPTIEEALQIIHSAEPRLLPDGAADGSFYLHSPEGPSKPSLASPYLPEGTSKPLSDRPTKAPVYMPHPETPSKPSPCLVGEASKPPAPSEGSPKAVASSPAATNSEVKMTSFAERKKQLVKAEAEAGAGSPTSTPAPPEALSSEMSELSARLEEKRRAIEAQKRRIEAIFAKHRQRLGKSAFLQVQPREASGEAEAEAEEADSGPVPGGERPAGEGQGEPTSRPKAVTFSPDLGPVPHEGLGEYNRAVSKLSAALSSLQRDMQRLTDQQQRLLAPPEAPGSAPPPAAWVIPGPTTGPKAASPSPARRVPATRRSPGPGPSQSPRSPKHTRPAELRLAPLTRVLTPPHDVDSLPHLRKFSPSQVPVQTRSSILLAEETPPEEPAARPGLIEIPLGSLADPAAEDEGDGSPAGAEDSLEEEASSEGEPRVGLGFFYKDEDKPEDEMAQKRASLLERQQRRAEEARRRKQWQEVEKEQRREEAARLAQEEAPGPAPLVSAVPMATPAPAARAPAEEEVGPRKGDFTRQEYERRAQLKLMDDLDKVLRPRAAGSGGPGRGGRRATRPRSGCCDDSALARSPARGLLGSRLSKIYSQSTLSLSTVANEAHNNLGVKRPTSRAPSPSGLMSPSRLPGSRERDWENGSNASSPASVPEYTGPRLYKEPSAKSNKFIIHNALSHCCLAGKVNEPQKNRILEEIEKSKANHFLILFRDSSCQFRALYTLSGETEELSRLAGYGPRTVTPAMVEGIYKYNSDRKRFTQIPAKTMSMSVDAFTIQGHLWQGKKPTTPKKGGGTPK
UniProt Q96HA4: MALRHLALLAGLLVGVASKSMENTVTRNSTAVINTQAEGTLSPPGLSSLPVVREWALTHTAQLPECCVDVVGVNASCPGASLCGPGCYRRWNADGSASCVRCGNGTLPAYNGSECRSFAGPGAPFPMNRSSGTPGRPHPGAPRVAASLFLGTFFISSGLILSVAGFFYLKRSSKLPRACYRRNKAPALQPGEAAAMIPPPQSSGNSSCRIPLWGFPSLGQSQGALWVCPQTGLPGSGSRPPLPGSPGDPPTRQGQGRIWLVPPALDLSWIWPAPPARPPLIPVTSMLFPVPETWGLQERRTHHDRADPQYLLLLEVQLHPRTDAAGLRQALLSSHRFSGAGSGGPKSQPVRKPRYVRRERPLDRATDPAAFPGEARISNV

Each target was assayed with C1=CC2=NC=CN=C2C=C1/C=C/3\C(=O)NC(=O)S3 (assay: log2 fold change, soluble protein after heating vs DMSO (PISA); higher = thermal stabilisation; K562 lysate, 10 uM; active = over 0.2 and 3.5 SD of the protein, either way, in both replicates (recomputed)).
Procedure, shortened: (§1)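 Dounce homogenisation of K562 pellets in PBS pH 7.4 with 1 mM MgCl2 produced a crude extract, used at 1 mg/mL protein. Exposure to 10 μM compound lasted 30 min, and aliquots were then heated for 3 min across 48°C-58°C, pooled and brought to 0.5% NP-40 at 4°C. The supernatant after 21,000xg for 90 min was quantified by TMTpro 16plex LC-MS/MS with channel sums equalised. Duplicate values are given as log-two fold change in thermal stability relative to solvent controls.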

log2 fold change, inactive:
C16orf87 (UniProt Q6PH81) -0.1, CAPNS1 (UniProt U3KPR7) -0.105, C9orf85 isoform 1 (UniProt Q96MD7) -0.026, C12orf73 (UniProt Q69YU5) 0.043, C3AR1 (UniProt Q16581) 0.145, C1orf174 (UniProt Q8IYL3) -0.042, C8orf88 (UniProt P0DMB2) 0.028, CAP1 isoform 2 (UniProt Q01518) 0.011, C12orf4 (UniProt Q9NQ89) -0.172, C22orf39 (UniProt Q6P5X5) 0.117, C2orf76 (UniProt Q3KRA6) 0.089, CABLES2 (UniProt Q9BTV7) 0.083, C18orf21 (UniProt Q32NC0) -0.125, C11orf96 (UniProt Q7Z7L8) 0.019

Each target was assayed with C1=CC=C(C=C1)C2=NC(=C(N2)C3=CC=NC=C3)C4=CC(=C(C=C4)Cl)O in the same assay as above.
Procedure, shortened: as §1

log2 fold change, inactive:
C2orf88 (UniProt Q9BSF0) 0.067, C16orf87 (UniProt Q6PH81) -0.076, C9orf85 isoform 1 (UniProt Q96MD7) -0.003, C19orf44 (UniProt Q9H6X5) -0.11, C12orf73 (UniProt Q69YU5) -0.019, C1orf174 (UniProt Q8IYL3) -0.087, C8orf88 (UniProt P0DMB2) -0.003, C1orf109 (UniProt Q9NX04) -0.115, CAPN1 (UniProt E9PLX0) 0.283, CAP1 isoform 2 (UniProt Q01518) 0.134, CAPNS2 (UniProt Q96L46) -0.004, C1orf226 isoform 2 (UniProt A1L170) 0.097, C19orf12 (UniProt Q9NSK7) -0.009, C4orf46 (UniProt Q504U0) 0.053, C22orf39 (UniProt Q6P5X5) -0.087, C11orf24 (UniProt Q96F05) -0.01, C2orf76 (UniProt Q3KRA6) 0.064, C18orf21 (UniProt Q32NC0) -0.025, C2orf49 isoform 2 (UniProt Q9BVC5) 0.034, CAMKMT (UniProt Q7Z624) -0.089, C11orf96 (UniProt Q7Z7L8) 0.097

The targets below were run with C1=CC=C2C(=C1)C3=NNC4=CC=CC(=C43)C2=O in the same assay as above.
Procedure, shortened: as §1

log2 fold change, inactive:
C16orf87 (UniProt Q6PH81) -0.07, CARD6 (UniProt Q9BX69) -0.106, C19orf57 (UniProt Q0VDD7) -0.043, C1orf174 (UniProt Q8IYL3) -0.048, C6orf62 (UniProt Q9GZU0) 0.109, CAPN1 (UniProt E9PLX0) -0.028, C1orf226 isoform 2 (UniProt A1L170) 0.007, CAMSAP3 isoform 2 (UniProt Q9P1Y5) 0.02, C22orf39 (UniProt Q6P5X5) -0.055, CABLES2 (UniProt Q9BTV7) 0.052, CANX (UniProt D6RHJ3) -0.022

What follows are targets tested with C1CCN(C1)C(=O)NC2=CC=CC(=C2)NC3=NC=C(C(=N3)NCCC4=CN=CN4)Br in the same assay as above.
Procedure, shortened: as §1

log2 fold change, inactive:
C16orf87 (UniProt Q6PH81) 0.118, C1orf159 isoform 4 (UniProt Q96HA4) 0.074, CA1 (UniProt E5RIF9) 0.101, C1orf109 (UniProt Q9NX04) -0.039, CAPN1 (UniProt E9PLX0) 0.144, C19orf12 (UniProt Q9NSK7) -0.002, C12orf4 (UniProt Q9NQ89) -0.11, C22orf39 (UniProt Q6P5X5) -0.032, C2orf76 (UniProt Q3KRA6) 0.025, CABLES2 (UniProt Q9BTV7) -0.018, C1RL (UniProt Q9NZP8) -0.066

Each target was assayed with C1CN(CCC1(CC2=CC=C(C=C2)Cl)N)C3=NC=NC4=C3C=CN4 in the same assay as above.
Procedure, shortened: as §1

log2 fold change, inactive:
C16orf87 (UniProt Q6PH81) 0.147, C1orf159 isoform 4 (UniProt Q96HA4) 0.027, CA1 (UniProt E5RIF9) 0.074, C1orf109 (UniProt Q9NX04) 0.054, CAPN1 (UniProt E9PLX0) -0.241, C19orf12 (UniProt Q9NSK7) -0.078, C12orf4 (UniProt Q9NQ89) -0.013, C22orf39 (UniProt Q6P5X5) -0.033, C2orf76 (UniProt Q3KRA6) -0.002, CABLES2 (UniProt Q9BTV7) 0.09, C1RL (UniProt Q9NZP8) 0.084
